Laboratory results taken from the supplement of paper PMC7024190.
Counter-ions that a name gives are not always drawn. Some of the results follow. This data set is noisy: repeats of one test often differ as much as different tests do.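 Human embryonic kidney cells were transiently transfected with a plasmid bearing a Renilla luciferase gene under the HSV-TK promoter. This first-round screen tests roughly ten thousand compounds for ones that increase reporter output.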

Each compound was assayed on HEK 293FT (assay: log relative Renilla luciferase luminescence (reporter expression vs reference, reference not stated) (log (base not stated)); higher = higher recombinant reporter expression). Settings: 10 µM; time after transfection 48 h.
`COc1ccc(NC(=O)c2ccc(-c3ccc(-c4noc(C)n4)cc3C)cc2)cc1OCCN(C)C` gave a log of -0.0536.
`COc1cc2ncnc(Nc3ccc(Cl)cc3F)c2cc1OC` showed a log of -0.113.
`Cc1cc(C)c(N(Cc2ccccc2)S(=O)(=O)c2ccc(OCCNC(=O)c3cc4ccccc4o3)cc2)c(C(=O)NO)c1` showed a log of -0.153.
`Brc1c(NC2=NCCN2)ccc2nccnc12` showed a log of 0.0619.
`CSc1ccc2c(c1)C(N1CCN(C)CC1)Cc1ccccc1S2` (stereo not given) [Methiothepin maleate] showed a log of -0.0254.
With `C=CCN1CCc2cc(O)c(O)cc2C(c2ccccc2)C1` (stereo not given) the log was 0.214.
`O=C(Nc1ccncc1)c1cc([N+](=O)[O-])ccc1Cl` was tested, and the log was -0.00861.
Work on `Oc1c2ccccc2c2c3c(cccc13)N=N2` yielded a log of -0.0437.
Work on `CCOC(=O)[C@H](CCc1ccccc1)N[C@H]1CCc2ccccc2N(CC(=O)O)C1=O` [Benazepril hydrochloride] yielded a log of -0.0206.
For `CNc1cc(OC)c(C(=O)NC2CCN(Cc3ccccc3)C2C)cc1Cl` (stereo not given) [Nemonapride], the log was 0.0616.
Compound `CCOC(=O)c1cnc2c(cnn2CC)c1NN=C(C)C` [Etazolate hydrochloride] has a log of 0.0515.
`Nc1ccc(-c2nc3ccc(-c4nc5ccc(N)cc5[nH]4)cc3[nH]2)cc1` gave a log of -0.102.
`CN1CCC[C@@H]1CCO[C@](C)(c1ccccc1)c1ccc(Cl)cc1` [Clemastine fumarate] was tested, and the log was 0.0767.
`Nc1ncnc2n[nH]c(Nc3ccc(F)cc3)c12` was tested, and the log was -0.0876.
With `Cc1cccc(/C=C/c2ccccc2)n1` the log was 0.0553.
`COC1CCC(C(=O)c2ccc3nc4c(cc3c2)CCCO4)CC1` (stereo not given) showed a log of -0.148.
`CN(Cc1ccccc1)C(=O)[C@H](Cc1ccc2ccccc2c1)NC(=O)[C@@H]1C[C@@H](O)CN1C(=O)c1cn(C)c2ccccc12` showed a log of -0.0455.
With `Cc1ccc([N+](=O)[O-])cc1S(=O)(=O)N(C)C` the log was 0.026.
For `NCCCCCCCCCCNS(=O)(=O)c1cccc2c(Cl)cccc12` [A-7 hydrochloride], the log was 0.157.
With `c1ccc2nc(C3=NCCN3)cnc2c1` [BU 239 hydrochloride] the log was 0.0458.
`COc1cc(OC)c(NC(=O)Nc2cc(C)on2)cc1Cl` gave a log of -0.0275.
Compound `C[N+]1(C)CCC(OC(=O)C(c2ccccc2)c2ccccc2)CC1` has a log of 0.164.
With `COc1ccc(CC(C)NCC(O)c2ccc(O)c(NC=O)c2)cc1` (stereo not given) [Formoterol hemifumarate] the log was 0.154.
In the case of `COc1cc(COc2cc(N)c(Cl)cc2C(=O)CCC2CCN(CCNS(C)(=O)=O)CC2)cc(OC)c1`, the log is reported as 0.114.
Compound `CC(C)NCC(O)c1ccc2ccccc2c1` (stereo not given) [Pronethalol hydrochloride] has a log of -0.0416.
For `c1ccc2cc(C3=NCCN3)ncc2c1` [BU 226 hydrochloride], the log was -0.00758.
`O=C(COc1cccc2c(=O)[nH]ccc12)c1ccccc1` gave a log of -0.14.
`Nc1c(S(=O)(=O)O)cc(Nc2cccc3ccccc23)c2c1C(=O)c1ccccc1C2=O` was tested, and the log was 0.0422.
In the case of `O=C1c2ccccc2C(Cc2ccncc2)(Cc2ccncc2)c2ccccc21` [XE 991 dihydrochloride], the log is reported as -0.0476.
For `CC(C)[C@H](CO)Nc1nc(Nc2cc(N)cc(Cl)c2)c2ncn(C(C)C)c2n1` [Aminopurvalanol A], the log was -0.267.
Work on `Cc1cc(C)c(/C=C2\C(=O)Nc3ccccc32)[nH]1` yielded a log of 0.0616.
For `O=C1Cc2c([nH]c3ccc(Br)cc23)-c2ccccc2N1` [Kenpaullone], the log was 0.0774.
`N[C@H](C(=O)O)c1cc(O)cc(O)c1` showed a log of 0.0438.
Compound `O=S1(=O)c2cccc3cccc(c23)N1CCCN1CCN(c2ccc(F)cc2)CC1` [Fananserin] has a log of -0.04.
In the case of `CCCCCCN(CCCCCC)C(=O)Cc1c(-c2ccc(Cl)cc2)[nH]c2ccc(Cl)cc12`, the log is reported as -0.129.
Compound `Cc1ccc(/C=C2\CNC/C(=C\c3ccc(C)cc3)C2=O)cc1` has a log of 0.03.
In the case of `COP(=O)(OC)OC(c1ccc(Cl)cc1)P(=O)(OC)OC` (stereo not given), the log is reported as 0.0168.
`COc1ccc([C@H]2CNC(=O)C2)cc1OC1CCCC1` [(S)-(+)-Rolipram] gave a log of -0.0798.
For `COc1ccc(-c2ccc(=N)n(CCCC(=O)O)n2)cc1`, the log was -0.0824.
In the case of `O=C1NN(C(=O)Nc2ccc(Br)cc2)[C@@H](c2ccccc2)[C@@H]1c1ccccc1`, the log is reported as 0.114.
